Laboratory results taken from PubChem BioAssay AID528 (NMMLSC, 2006).
Hit rate of the full screen: of about 24,000 compounds, fewer than 10 were called active. This list was built around the results that the source calls inconclusive (neither active nor inactive); the mix of calls is not that of the screen.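 Rule for the calls: active = fluorescent ligand binding to cells raised by more than 40% of the manganese-induced maximum; inconclusive = compound's own fluorescence above 85% of the ligand control signal; inactive = the rest.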

Sequences of proteins named here, by UniProt entry; tags and fusion partners are left off.
UniProt P13612, whole entry, looked up: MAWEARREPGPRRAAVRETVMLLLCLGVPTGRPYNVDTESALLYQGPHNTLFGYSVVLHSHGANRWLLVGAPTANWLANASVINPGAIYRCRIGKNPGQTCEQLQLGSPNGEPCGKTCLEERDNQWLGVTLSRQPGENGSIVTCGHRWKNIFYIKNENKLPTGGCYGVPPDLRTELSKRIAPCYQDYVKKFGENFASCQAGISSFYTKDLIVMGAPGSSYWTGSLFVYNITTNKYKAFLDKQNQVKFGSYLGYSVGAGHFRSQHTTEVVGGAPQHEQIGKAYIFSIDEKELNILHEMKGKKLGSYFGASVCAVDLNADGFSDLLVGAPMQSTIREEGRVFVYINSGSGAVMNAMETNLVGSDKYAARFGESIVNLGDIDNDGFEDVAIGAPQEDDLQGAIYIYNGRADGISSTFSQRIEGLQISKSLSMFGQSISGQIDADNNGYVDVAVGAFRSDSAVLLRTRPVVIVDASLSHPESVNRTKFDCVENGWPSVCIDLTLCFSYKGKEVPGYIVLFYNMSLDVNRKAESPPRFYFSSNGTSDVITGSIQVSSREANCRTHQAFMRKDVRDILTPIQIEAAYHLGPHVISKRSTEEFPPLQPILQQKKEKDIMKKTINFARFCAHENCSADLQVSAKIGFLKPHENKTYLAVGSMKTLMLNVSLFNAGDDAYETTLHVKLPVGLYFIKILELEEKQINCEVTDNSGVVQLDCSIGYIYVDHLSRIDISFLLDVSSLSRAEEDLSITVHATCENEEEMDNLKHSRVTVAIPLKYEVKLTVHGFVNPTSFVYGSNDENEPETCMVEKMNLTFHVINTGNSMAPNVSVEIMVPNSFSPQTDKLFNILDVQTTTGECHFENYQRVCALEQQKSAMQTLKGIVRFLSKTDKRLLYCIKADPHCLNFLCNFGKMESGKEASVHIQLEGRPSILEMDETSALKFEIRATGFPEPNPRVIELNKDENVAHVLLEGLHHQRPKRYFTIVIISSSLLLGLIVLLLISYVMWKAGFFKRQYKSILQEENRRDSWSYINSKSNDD

Target: Integrin alpha-4 (Homo sapiens) (UniProt P13612)
Experiment: enhancers of LDV-FITC binding to VLA-4 integrin, primary screen, Jurkat cells, flow cytometry (AID 528);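 for activation: 0% = ligand binding without compound and 100% = manganese-stimulated maximal binding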
Settings: active compounds read high, screened at 10 µM (by protocol)

Compound	activation
CC(CCc1ccccc1)NC(=O)c1nnc(Cc2ccc(F)cc2)o1 (configuration not stated)	inconclusive
COc1ccc(CCNC(=O)c2nnn(-c3ccccc3OC)c2N)cc1OC	inconclusive
COc1ccc2[nH]c(=O)c(CN(CC3CCCO3)C(=O)Nc3ccc(F)cc3)cc2c1 (configuration not stated)	inconclusive
CS(=O)(=O)Nc1ccccc1C(=O)O	inconclusive
CCN1CCCC1CNC(=O)Cn1cnc2ccc(S(=O)(=O)N3CCC(C)CC3)cc2c1=O (configuration not stated)	inconclusive
Cc1cc2cc(CNC(=O)c3cc4ccccc4o3)ccc2n1C	inconclusive
Cc1cc(C)cc(-c2nc(-c3ccncc3)no2)c1	inconclusive
O=C(O)c1ccc2c(c1)C(c1ccccc1)OC2=O (configuration not stated)	inconclusive
COc1cc(-c2nc3n(n2)C(c2ccc(F)cc2)C2=C(CCCC2=O)N3)cc(OC)c1OC (configuration not stated)	inconclusive
CC1(C)Cc2c(C#N)c(N3CCCC3)nc(-c3ccco3)c2CO1	inconclusive
CCC1(C)COC2(OC1)C(=O)Nc1ccccc12 (configuration not stated)	inconclusive
O=C(NCCN1CCCC1)c1ccc2c(=O)n(CCc3ccccc3)c(=O)[nH]c2c1	inconclusive
CCOC(=O)N1CCC(Nc2c(NCCCN(C)Cc3ccccc3)c(=O)c2=O)CC1	inconclusive
O=C(NCCN1CCN(c2cccc(Cl)c2)CC1)c1cccn2c(=O)c3ccccc3nc12	inconclusive
COC(=O)CCC(=O)N1CCc2cc(S(=O)(=O)N3CCc4ccccc43)ccc21	inconclusive
COc1cccc(S(=O)(=O)Nc2ccc3sc(C)nc3c2)c1	inconclusive
Cn1c(C(=O)NCCCN2CCN(c3cccc(Cl)c3)CC2)cc2c(=O)n(C)c3ccccc3c21	inconclusive
O=C(CSc1nnc(Cn2c(=O)sc3ccccc32)n1-c1ccccc1)NCc1ccco1	inconclusive
O=C(c1ccc(=O)[nH]c1)N(Cc1ccco1)C1(C(=O)NC2CCCCC2)CCCCC1	inactive: 8%
O=C(C1CCCN(S(=O)(=O)c2cccc3nsnc23)C1)N1CCc2ccccc2C1 (configuration not stated)	inconclusive
O=C(NCCc1ccccc1)C1CCCN(S(=O)(=O)c2cccc3nonc23)C1 (configuration not stated)	inconclusive
CCOc1ccc(-n2nc(C(=O)N3CCOCC3)c3ccccc3c2=O)cc1	inactive: 5%
CCOC(=O)N1CCN(C(=O)c2cn(CC)c3cc(N4CCN(C)CC4)c(F)cc3c2=O)CC1	inactive: 1%
Nc1nc2n(n1)C(c1c(F)cccc1Cl)CC(c1ccc(F)cc1)N2 (configuration not stated)	inactive: 2.3%
COc1ccc(-c2c(C#N)c(SCc3c(C)noc3C)nc3c2C(=O)CC(C)(C)C3)cc1	inconclusive

Compound	activation
CCOC(=O)c1c(C)oc2ccc(O)c(CN(C)C)c12	inactive: 2%
COCCNC(=O)CN1C(=O)COc2ccc(Cl)cc21	inconclusive
COc1ccc(OC)c(CCNC(=O)Cn2sc3nc(C)cc(C)c3c2=O)c1	inconclusive
Cc1ccc(NC(=O)c2ccc(F)c(S(=O)(=O)N3CCOCC3)c2)cc1F	inconclusive
Cn1c(=O)oc2cc(S(=O)(=O)NCCC(=O)N3CCc4ccccc43)ccc21	inconclusive
O=C(CCn1[nH]c(=O)c2ccccc2c1=O)NCCO	inconclusive
OCCNc1nc(OCC(F)(F)F)nc(N2CCN(C34CC5CC(CC(C5)C3)C4)CC2)n1	inconclusive
O=C(CNS(=O)(=O)c1ccccc1)NCc1ccccn1	inactive: -2.5%
CCOc1ccc(NC(=O)C2CC(=O)N(C(C)C)C2)cc1 (configuration not stated)	inactive: 4.5%
COc1ccccc1N1CCN(C(=O)c2ccc(N3CCCC3=O)cc2)CC1	inconclusive
N#CC1(c2ccccc2)CCC(=NO)CC1 (configuration not stated)	inactive: -2%
COc1ccc(S(=O)(=O)N2CCN(CC(=O)Nc3ccc(C)c(F)c3)CC2)cc1	inactive: 0.3%
C=CCOc1cccc(C2c3c(oc4ccc(F)cc4c3=O)C(=O)N2CCCN2CCOCC2)c1 (configuration not stated)	inconclusive
CCCCNC(=O)CS(=O)Cc1nc(-c2cccs2)oc1C (configuration not stated)	inconclusive
Cc1n[nH]c(C)c1S(=O)(=O)N1CCCC(C(=O)NCc2cccs2)C1 (configuration not stated)	inactive: 21%
CCCCCSc1nncc(=O)[nH]1	inconclusive
CCOc1ccc(-c2cc3nc(C4CCN(C(=O)OC(C)(C)C)CC4)c(C(=O)O)cn3n2)cc1	inactive: -4%
Cc1cc(C)c2c(-n3cccc3)c(C(=O)O)sc2n1	inconclusive
COC(=O)c1ccc(OCC(=O)Nc2nn(-c3ccccc3)nc2C(N)=O)cc1	inconclusive
CCn1nnc(NC(=O)c2ccc(-c3ccc(Cl)cc3)o2)n1	inconclusive
Cc1ccc2c(c1)NC(=O)C(CC(=O)Nc1ccc(CN3CCC(C)CC3)cc1)O2 (configuration not stated)	inconclusive
CCCn1nnc2sc3c(c2c1=O)CCC(C)C3 (configuration not stated)	inactive: 4%
CCn1cc(-c2cc(C(F)(F)F)n3nc(C(=O)O)cc3n2)c(C)n1	inactive: 0%
COc1ccc(Cl)cc1N(C)C(=O)CCNC(=O)Cn1cnc2ccccc2c1=O	inconclusive
O=C(CCC1N=C2c3ccccc3N=C(SCc3ccc(F)cc3)N2C1=O)NCc1ccco1 (configuration not stated)	inconclusive

Entries listed so far that contain an aryl thioether with sulfur outside any ring, in the order listed:
Compound	activation
O=C(CSc1nnc(Cn2c(=O)sc3ccccc32)n1-c1ccccc1)NCc1ccco1	inconclusive
COc1ccc(-c2c(C#N)c(SCc3c(C)noc3C)nc3c2C(=O)CC(C)(C)C3)cc1	inconclusive
CCCCCSc1nncc(=O)[nH]1	inconclusive

The list goes on:

Compound	activation
C=CCOC(=O)C1=C(C)OC(N)=C(C#N)C1c1ccc(F)cc1 (configuration not stated)	inactive: -2.5%
CCOc1ccc(C2CC(c3cccc(OC)c3)Nc3ncnn32)cc1 (configuration not stated)	inactive: 1%
Cc1ccc(C)c(N2CCN(C(=O)c3cc4ccccc4oc3=O)CC2)c1	inconclusive
CN(C1CCCCC1)S(=O)(=O)c1ccc2c(c1)c(=O)c(C(=O)NCCCN1CCCC1)cn2C	inconclusive
COc1ccc(Cl)cc1N1C(=O)C2CCCN2C1c1ccccc1F (configuration not stated)	inconclusive
CCOC(=O)C1CCCN(c2c(NCCc3ccc(S(N)(=O)=O)cc3)c(=O)c2=O)C1 (configuration not stated)	inconclusive
FC(F)(F)c1nnc2sc(-c3cccs3)nn12	inconclusive
Cc1nnc(SCC(=O)NCc2ccco2)[nH]c1=O	inconclusive
Cc1nc2ccccn2c1/C(O)=C1\C(=O)C(=O)N(CCCN(C)C)C1c1ccc(Cl)cc1 (configuration not stated)	inactive: -2%
Cc1ccc(N=c2oc3cc(O)ccc3cc2C(N)=O)cc1	inconclusive
CCOc1ccc2c(c1)c1nnc(SCC(=O)N3CCC(C)CC3)nc1n2C	inconclusive
c1ccc(-c2noc(CSc3nc4ccccc4o3)n2)cc1	inconclusive
CCCCNC(=O)CCCCCn1c(=O)[nH]c2cc(OC)c(OC)cc2c1=O	inconclusive
Cn1c(=O)c2c(nc(N3CCCCCC3)n2CC(=O)c2ccc(Br)cc2)n(C)c1=O	inactive: -1%
c1csc(-c2nc3nc4ccccc4nc3n2Cc2ccc3c(c2)OCO3)c1	inconclusive
Cc1cccn2c(=O)c3cc(C(=O)NCCCn4ccnc4)n(C)c3nc12	inconclusive
CC1Cc2ccccc2N1C(=O)C1CCCN(S(=O)(=O)c2cccc3nsnc23)C1 (configuration not stated)	inconclusive
C=CCSc1nnc(-c2ccccc2NC(C)=O)c(=O)[nH]1	inconclusive
CN1C2C=C3C(C#N)=C(N)C(C#N)(C#N)[C@@H](c4ccc(Cl)cc4)[C@@H]3C1CC2 (some centres not stated)	inactive: 2%
CCN(CC(=O)Nc1ccc2c(c1)CCC2)Cc1nc2ccccc2c(=O)[nH]1	inactive: -8.5%
CCOc1cc(C2C(C(=O)OCC(C)C)=C(C)N=C3SCCC(=O)N32)ccc1OC(C)=O (configuration not stated)	inactive: 3%
Cc1ccc(-c2nnc3n2N=C(c2ccc(Br)cc2)CS3)cc1	inconclusive
O=C(CN1CCN(c2ccccn2)CC1)Nc1ccc(Cl)c(C(F)(F)F)c1	inconclusive
O=C(CCNS(=O)(=O)c1ccc(Br)cc1)NCc1ccc2c(c1)OCO2	inconclusive
O=C(Cn1ccc2ccccc2c1=O)N1CCN(Cc2ccc3c(c2)OCO3)CC1	inconclusive

Compound	activation
CCC(=O)N1CCc2cc(S(=O)(=O)NCCC(=O)NC3CCCc4ccccc43)ccc21 (configuration not stated)	inconclusive
Cc1nc2sc(C(c3ccc(F)cc3)N3CCN(C(=O)c4ccco4)CC3)c(O)n2n1 (configuration not stated)	inconclusive
Cc1cccc(NC(=O)C2CCN(S(=O)(=O)c3cccc4cccnc34)CC2)n1	inactive: -1%
CCOc1ccc(C(=O)CN2CCN(S(=O)(=O)c3ccc(OC)cc3)CC2)cc1	inactive: -5.3%
COc1c(S(=O)(=O)n2nc(C)cc2C)ccc(Cl)c1Cl	inactive: 4%
O=C(NCc1cccnc1)c1ccc(CS(=O)(=O)c2ccc(Br)cc2)o1	inactive: 3%
Cc1cccc(CSC2=NCCN2C(=O)C2CC2)c1	inconclusive
CCOC(=O)C1CCCN(c2c(NCCCN(C)c3ccccc3)c(=O)c2=O)C1 (configuration not stated)	inconclusive
CC1(C)CC(=O)c2c(noc2-c2ccccc2)C1	inconclusive
CC(=O)OC1CC(C)(C)N(OC(=O)c2ccccc2)C(C)(C)C1	inconclusive
COc1cc(CC(=O)NCc2ccc3c(c2)OCO3)cc(OC)c1OC	inconclusive
CSc1nnc2n(CCc3ccccc3)c(=O)c3c4c(sc3n12)CCCC4	inactive: 1.5%
COc1ccccc1-c1cc(N)n(S(=O)(=O)c2ccc(F)c(C)c2)n1	inconclusive
COc1ccc2cc(C#N)c(SCC(=O)N3CCCC3)nc2c1	inconclusive
COc1ccccc1C1CC(=O)NC(C)=C1C(=O)OCC1CCCO1 (configuration not stated)	inconclusive
COC(=O)c1ccc2c(=O)n(CC3CCCO3)c(SCC(=O)Nc3ccccc3OC)nc2c1 (configuration not stated)	inconclusive
CC(=O)c1ccc(-c2nc3ccccc3n2C)o1	inconclusive
Cc1ccc(NC(=O)CN(C)S(=O)(=O)c2cccc3cccnc23)cc1	inconclusive
CN1CCc2nc(SCC(=O)Nc3ccc(F)cc3)c(C#N)cc2C1	inactive: 6%
CCCCOC(=O)C1C2C=CC3(CN(CCc4ccccc4)C(=O)C13)O2 (configuration not stated)	inactive: 1%
CCN1C(=O)CSc2ccc(C(=O)NC3CCCCC3)cc21	inconclusive
N#Cc1ccc(NC(=O)c2cc3cc4c5c(c3oc2=N)CCCN5CCC4)cc1	inconclusive
